Percent effect of library compounds

Protein sequences, listed by entry. Tags and fused reporters are not part of them. Residues count along the entry.
UniProt A4I591, 1-473: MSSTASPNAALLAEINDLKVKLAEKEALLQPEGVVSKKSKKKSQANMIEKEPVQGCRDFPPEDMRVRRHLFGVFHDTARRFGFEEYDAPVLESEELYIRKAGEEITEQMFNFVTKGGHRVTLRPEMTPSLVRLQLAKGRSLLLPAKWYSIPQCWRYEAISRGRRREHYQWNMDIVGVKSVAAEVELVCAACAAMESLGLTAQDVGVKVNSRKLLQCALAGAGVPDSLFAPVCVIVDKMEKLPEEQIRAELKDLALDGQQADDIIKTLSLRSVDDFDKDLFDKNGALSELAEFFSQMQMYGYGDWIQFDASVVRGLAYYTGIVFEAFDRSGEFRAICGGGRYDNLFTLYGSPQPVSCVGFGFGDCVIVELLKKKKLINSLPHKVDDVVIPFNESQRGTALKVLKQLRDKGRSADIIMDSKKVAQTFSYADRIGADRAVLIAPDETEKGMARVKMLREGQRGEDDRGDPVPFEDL

Source: ChEMBL document CHEMBL3988442, “University of Dundee, Small-Polar-MMV Screening Library” (2021).

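Histidine-tRNA ligase, Leishmania infantum (UniProt A4I591). Enzyme assay of histidyl-tRNA synthetase; the read-out is not stated. Compounds at 30 µM. Higher reads as stronger inhibition (inferred: compounds with an IC50 in retests scored well above the rest). The assay is labelled LdHisRS but filed under L. infantum. Of about 69,000 compounds tested this way, about 410 (0.6%) reached 50% or more in at least one test.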

The filed quantity is “Percent Effect” (%). The record does not define 0% and 100%; most values in the screen are far below 50% and negative numbers occur (in some assays of this library far below -100). Compounds were drawn at random from those tested, without regard to their results.

O=C(C1CC2(CCNCC2)CN1)N1CCN(c2cccc(Cl)c2Cl)CC1 (centres undefined) gave 13.7%.
Cc1ccccc1CC(C)(C)NC(=O)COc1cccc(C(N)=O)c1 gave 22.08%.
c1cnc(NC2COC3(CCN(Cc4cc[nH]n4)CC3)C2)nc1 (centres undefined) gave 17.28%.
Cc1cc(C(=O)N2C[C@@H]3[C@@H](CN(C)CCc4ccccn4)[C@@H]3C2)c(C)o1 gave 17.02%.
O=C(Cc1n[nH]c(-c2cncc(Br)c2)n1)NCc1ccncc1 gave 6.557%.
CCCS(=O)(=O)N1CC[C@H]2OCC[C@@]2(c2nnc(C)o2)C1 gave 23.68%.
c1ccc2oc(N3CCn4c(nnc4C4CC4)C3)nc2c1 gave 7.463%.
Cc1nc(C)n(C2CCCN(C(=O)c3csc(CC(C)C)n3)C2)n1 (centres undefined) gave 11.4%.
CCn1cnnc1CNC(=O)N(C)Cc1cccc(Cl)c1Cl gave 6.494%.
CC(NC1(CNS(C)(=O)=O)CCCC1)c1ccccc1 (centres undefined) gave 15.97%.
CC(C)(C)NC(=O)CNc1ccc(C#N)c(C(F)(F)F)c1 gave 10.96%.
CCc1ccccc1OCCNCCc1c[nH]cn1 gave 12.5%.
COC1COC2(CCN(c3ccc(C#N)cc3)CC2)C1 (centres undefined) gave -2.941%.
COc1cccc2[nH]cc(CCNC(=O)N3CCOCC3C3CC3)c12 (centres undefined) gave 6.349%.
CC(C)NC(=O)O[C@H]1COCCN(c2nc3ccccc3s2)C1 gave 27.78%.
c1csc(CN2C[C@@H]3OCCN(CC4CCCO4)[C@@H]3C2)c1 (some centres undefined) gave 11.43%.
COCC(=O)N1CCc2[nH]nc(-c3ccc4c(c3)OCO4)c2C1 gave 17.11%.
O=C1N(Cc2ccc(Cl)cc2)CCC12CCCNC2 (centres undefined) gave 13.46%.
Cc1nnc(SCCCNC(=O)c2ccc3c(c2)OCO3)s1 gave 1.075%.
O=C(C1CCCO1)N1CCC(O)(Cn2ccc3ccncc32)CC1 (centres undefined) gave 0%.
CCc1nc(C2CCCN(C(=O)c3ccccc3O)C2)no1 (centres undefined) gave 9.091%.
COc1ccc(Cl)cc1NCC(=O)NCc1cccnc1OC gave -8.929%.
CCS(=O)(=O)NCC1OCCc2cn(CC3CCOCC3)nc21 (centres undefined) gave 28.95%.
Cc1nc(OCC(=O)N2CCCC2)cc(-n2cccn2)n1 gave 4%.
COc1ccc(C)cc1NC(=O)Nc1cnc(N2CCCC2)nc1 gave 22.47%.
COC1CCN(S(=O)(=O)N2C[C@H](c3ccccc3)[C@@H](N)C2)CC1 gave 3.226%.
CC(C)Cn1c(=O)n(CCCn2cccn2)c2cc(C(=O)O)cnc21 gave 17.24%.
CCNC(=O)CCC(=O)NC(C)Cc1ccccc1Br (centres undefined) gave 7.937%.
COCCOCC(C)NC(=O)COc1nn(C)c2nc(C)cc(C)c12 (centres undefined) gave 10.2%.
Cc1cccc(C(=O)N2CCCCC2c2ccc(CN(C)C)cc2)c1 (centres undefined) gave 30.56%.
Cc1ccc(C)c(OC(C)C(=O)NCc2cccnc2)c1 (centres undefined) gave 0%.
CNC(=O)CN1C(=O)CN(C(=O)COC)CCC(OC)c2ccccc21 (centres undefined) gave -8.163%.
Cc1cccc(CN2C(=O)OCC2CO)c1F (centres undefined) gave 18.48%.
CCS(=O)(=O)N1CCC(OC)c2ccccc2N(CC(=O)NC)C(=O)C1 (centres undefined) gave 6.122%.
O=C(COCC1CC1)N1CCSCC1 gave 8.602%.
COc1ccccc1CNC(=O)C[S+]([O-])Cc1cc(C)on1 (centres undefined) gave 12.17%.
CC(C)NC(=O)N1CC[C@@H]2[C@@H]1CC(=O)N2Cc1cccnc1 gave 11.54%.
Cc1ccsc1C(=O)N1CCc2ncc(CN(C)C)n2CC1 gave 18%.
CCC[C@H]1CN(C(=O)c2ccc3[nH]c(CO)nc3c2)C[C@@H]1N gave -1.205%.
CN(Cc1ccco1)C(=O)c1ccc(=O)n(C)c1 gave 14.89%.
CN1CCN(c2ccnc3c(F)cc(Br)cc23)CC1 gave 11.71%.
COc1ccc(CN2CCO[C@H]3CN(C4CCC4)CC[C@H]3C2=O)cc1 gave -1.01%.
O=S(=O)(C1CC1)N1Cc2nccn2CC(Cn2cncn2)C1 (centres undefined) gave 7.547%.
Cc1c(C(=O)NCC2CCN(Cc3ccco3)C2)[nH]c2ccccc12 (centres undefined) gave 19.66%.

Some entries from above, unchanged:

Cc1nc(OCC(=O)N2CCCC2)cc(-n2cccn2)n1 read 4%.
Cc1ccsc1C(=O)N1CCc2ncc(CN(C)C)n2CC1 read 18%.
CN(Cc1ccco1)C(=O)c1ccc(=O)n(C)c1 read 14.89%.
O=C(C1CCCO1)N1CCC(O)(Cn2ccc3ccncc32)CC1 (centres undefined) read 0%.
O=C1N(Cc2ccc(Cl)cc2)CCC12CCCNC2 (centres undefined) read 13.46%.